Source: patent US20030212144A1, “Method for inducing an estrous cycle and pregnancy in a female mammal” (priority 2003, published 2003)
For at least one compound, name, drawing or mass did not settle the structure.

Tested on: release of norepinephrine (NE) from the hypothalamus
Assay: norepinephrine release and content, static in vitro incubation of hypothalami, HPLC-EC
Assay type: cell-based, Sprague-Dawley rats
Conditions: 1 mM deprenyl, second incubation period; pretreatment 166.4±25; p<0.05
Method: Four- to six-month old male Sprague-Dawley rats were obtained from Amitech (Omaha, Nebr.). These rats were housed in groups in air-conditioned (23±2° C.) and light controlled (lights on from 0700-1900 hours) animal rooms. They were provided rat chow and water ad libitum.
On the day of the experiment, the rats were sacrificed between 1200-1300 hrs. The brains were removed immediately and the hypothalami were dissected out using the following boundaries: the posterior part of the optic chiasmas the anterior limit, the anterior part of the mammillary bodies as the posterior limit, and the lateral hypothalamic sulci as the lateral limits (Palazzolo et al., Life Sci. 47: 2105-2109 (1990); Palazzolo et al., Life Sci. 51: 1797-1802 (1992)).
The hypothalami were weighed and divided into two halves along the sagittal plane and placed in a 12×75 mm glass tube containing 300 μl of Krebs-Ringer Henseleit (KRH) solution. The hypothalami were incubated in a static in vitro incubation system as described previously (Palazzolo et al., Life Sci. 47: 2105-2109 (1990); Palazzolo et al., Life Sci. 51: 1797-1802 (1992)). Briefly, the incubation system consisted of a plexiglass water bath, a magnetic circulator fin, and a thermostat coil. The bath was filled with distilled water and the thermostat was switched on at least an hour before the perfusion. […]

SMILES: C#CCN(C)C(C)Cc1ccccc1 (stereo not drawn) [deprenyl, phenethylamine, N, alpha-dimethyl-N-2-propynyl]
- NE release (Mean±S.E.): 354.7±:79 pg/mg hypothalamus
